Test results as given in patent US9408925B2, “Hyperpolarized lactate contrast agent for determination of LDH activity” (GE Healthcare Limited, priority 2010, dated 2016).

System: EL4 lymphoma tumors
Assay: T2 measurements in vivo, multi-echo experiment in tumors
Design: species or system murine
Source text: The time to echo in the hetero-nuclear spin echo experiment is 300 ms (see FIG. 3), therefore it is essential that the ^13C resonance has a long T2. We have previously measured transverse relaxation times for [1-^13C] lactate in EL4 lymphoma tumors in vivo at 9.4 T following injection of [1-^13C]pyruvate, see Kettunen, M. I., et al. Magnetization transfer measurements of exchange between hyperpolarized [1-^13C]pyruvate and [1-^13C] lactate in a murine lymphoma. Magn Reson Med 63, 872-880 (2010). […] For lactate (n=8), three components were fitted to the experimental data (FIG. 9), a short T2 component (0.13±0.09 s, 31±21%), a medium T2 component (0.75±0.20 s, 52±16%) and a long T2 component (2.2±0.7 s, 23±15%). Similar multi-exponential behavior has also been reported at 3 T, see Yen, Y., et al. Signal Enhancement in Low-Dose Hyperpolarized 13C Imaging Using Multi-Slice […] Sequence. in Proc Intl Soc Mag Res Med, Vol. 16 890 (Toronto, 2008). Therefore with an echo time of 300 ms, nearly 60% of the total [1-^13C] lactate signal will remain.

[1] = 9.4 T, following injection of [1-13C]pyruvate, n=8

## C[C@H](O)[13C](=O)[O-].[Na+] [L-[1-^13C1] lactate, Sodium L-[1-^13C1] lactate]
[1]
  long T2 component: 2.2 ± 0.7 s
  long T2 component contribution: 23±15%
  medium T2 component: 0.75 ± 0.20 s
  medium T2 component contribution: 52±16%
  short T2 component: 0.13 ± 0.09 s
  short T2 component contribution: 31±21%
Echo time of 300 ms
  total signal remaining: ~60%
